For at least one entry, the source does not settle the construct or the ends of the probe. No signal at the amounts used counts as a negative. Weaker means in comparison with the reference protein, sequence or condition of that experiment. At least one verdict rests on a figure or table, not on a statement of the authors.

Chains of the proteins cited; added tags and fusions are not shown. Lines headed by an entry give the natural chain unless they say otherwise; changes in a name come on top.
UniProt O34580: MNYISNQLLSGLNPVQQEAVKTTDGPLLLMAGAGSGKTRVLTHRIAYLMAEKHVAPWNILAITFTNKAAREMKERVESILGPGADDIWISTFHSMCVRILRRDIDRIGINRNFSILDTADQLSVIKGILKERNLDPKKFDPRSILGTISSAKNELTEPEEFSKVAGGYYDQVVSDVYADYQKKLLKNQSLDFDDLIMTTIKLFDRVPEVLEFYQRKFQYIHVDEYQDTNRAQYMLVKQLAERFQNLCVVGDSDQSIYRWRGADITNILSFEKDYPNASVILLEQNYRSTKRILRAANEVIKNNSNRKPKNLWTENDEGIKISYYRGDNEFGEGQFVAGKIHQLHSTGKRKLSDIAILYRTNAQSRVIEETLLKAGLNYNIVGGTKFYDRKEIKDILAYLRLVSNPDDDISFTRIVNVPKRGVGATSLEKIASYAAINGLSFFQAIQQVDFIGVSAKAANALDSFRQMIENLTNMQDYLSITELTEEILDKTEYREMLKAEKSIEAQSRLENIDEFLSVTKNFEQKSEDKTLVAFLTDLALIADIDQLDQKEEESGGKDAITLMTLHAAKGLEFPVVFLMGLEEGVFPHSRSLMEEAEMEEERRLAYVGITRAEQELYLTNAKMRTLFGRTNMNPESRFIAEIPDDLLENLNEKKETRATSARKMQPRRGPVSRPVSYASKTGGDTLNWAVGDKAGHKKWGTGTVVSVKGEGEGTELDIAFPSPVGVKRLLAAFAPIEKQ

This series has as its target PcrA (Bacillus subtilis) (UniProt O34580). Put plainly: EMSA. The note with it: 2.5 mM ATPgS, 3 mM Mg2+, 20 mM Tris-HCl pH 7.5, 50 mM NaCl, 3 mM MgCl2, 4 mM DTT, 0.05 mg/mL BSA, 5% glycerol, 0.1 nM 32P-labelled nucleic acid, 15 min, 37 C, recombinant protein, protein details: His6 removed (TAGZyme), label: 32P. (Mobility shift assays separate free from complexed probe on a gel.)

As to “AGACGCTGCCGAATTCTGGCTTGGATCTGATGCTGTCTAGAGGCCTCCACTATGAAATCG / AGCTCATAGATCGATAGTCTCTAGACAGCATCAGATCCAAGCCAGAATTCGGCAGCGTCT / CGATTTCATAGTGGAGGCCTCTAGACAGCA [3'-fork DNA (170/173/171)]”, under “folded or branched DNA”, the binding result is “binds”.

As to “AGACGCTGCCGAATTCTGGCTTGGATCTGATGCTGTCTAGAGGCCTCCACTATGAAATCG / AGCTCATAGATCGATAGTCTCTAGACAGCATCAGATCCAAGCCAGAATTCGGCAGCGTCT / GCGATTTCATAGTGGAGGCCTCTAGACAGCACGCCGTTGAATGGGCGGATGCTAATTACTATCTC / GAGATAGTAATTAGCATCCGCCCATTCAACGGCGTGCTGTCTAGAGACTATCGATCTATGAGCTCTGCAGC [HJ DNA (HJ3 in legend, HJ4 in text; 170/173/345/346)]”, the binding result (folded or branched DNA) was “binds”.

Regarding “AGACGCTGCCGAATTCTGGCTTGGATCTGATGCTGTCTAGAGGCCTCCACTATGAAATCG / AGCTCATAGATCGATAGTCTCTAGACAGCATCAGATCCAAGCCAGAATTCGGCAGCGTCT [flayed DNA (170/173)]”, the binding result (>10 complexes, folded or branched DNA) is reported as “binds”.

Take “GCTCTGATGCCGCATAGTTAAGCCAGCCCCGACACCCG (double strand) [38-bp dsDNA (SM44D/SM45D)]”: the binding result (only at large PcrA concentrations) is “binds more weakly”.

Turning to “GCUCUGAUGCCGCAUAGUUAAGCCAGCCCCGACACCCG / CGGGTGTCGGGGCTGGCTTAACTATGCGGCATCAGAGC [38-bp RNA-DNA hybrid (SM44R/SM45D)]”, the binding result (no stable complex, up to 400 nM, DNA:RNA hybrid) was “no binding”.
